These are yes or no findings as the source states them, for the method shown. Binding seen in cells or lysates may run through a third protein. Some binding calls cover weakened binding; strength is not graded here. Sequences can lack the tags named with a protein.
Molecular target: T1, PRPF3, in vitro translated (UniProt O43395)
T1 sequence (chain, [35S]-L-methionine label): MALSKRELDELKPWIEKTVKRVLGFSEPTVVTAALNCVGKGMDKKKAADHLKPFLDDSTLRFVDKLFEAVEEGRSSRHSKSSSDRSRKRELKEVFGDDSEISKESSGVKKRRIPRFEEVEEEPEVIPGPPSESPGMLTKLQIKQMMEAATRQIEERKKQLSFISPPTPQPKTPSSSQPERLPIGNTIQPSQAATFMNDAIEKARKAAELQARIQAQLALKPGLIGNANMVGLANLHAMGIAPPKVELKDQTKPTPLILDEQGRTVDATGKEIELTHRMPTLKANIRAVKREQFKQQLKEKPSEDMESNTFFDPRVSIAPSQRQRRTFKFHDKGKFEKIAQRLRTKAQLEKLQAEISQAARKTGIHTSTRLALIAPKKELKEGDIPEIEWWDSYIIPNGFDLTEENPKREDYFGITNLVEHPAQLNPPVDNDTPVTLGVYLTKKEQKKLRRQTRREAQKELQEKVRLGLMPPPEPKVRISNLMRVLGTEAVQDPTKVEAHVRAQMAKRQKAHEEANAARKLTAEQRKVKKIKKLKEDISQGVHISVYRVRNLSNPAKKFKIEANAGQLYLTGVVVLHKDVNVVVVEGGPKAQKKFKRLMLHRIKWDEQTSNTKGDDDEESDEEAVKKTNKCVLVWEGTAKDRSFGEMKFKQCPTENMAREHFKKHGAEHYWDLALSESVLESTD
Assay: co-IP; [35S]-labelled proteins translated together in rabbit reticulocyte lysate; precipitated with anti-PRPF3 antibody on protein A- or G-Sepharose in IPP300 (20 mM Tris pH 7.0, 300 mM NaCl, 0.05% NP40); autoradiography

binding: binds
B1: HA-tagged wildtype PRPF4, in vitro translated (protein, UniProt O43172 1-522)
chain: MASSRASSTQATKTKAPDDLVAPVVKKPHIYYGSLEEKERERLAKGESGILGKDGLKAGIEAGNINITSGEVFEIEEHISERQAEVLAEFERRKRARQINVSTDDSEVKACLRALGEPITLFGEGPAERRERLRNILSVVGTDALKKTKKDDEKSKKSKEEYQQTWYHEGPNSLKVARLWIANYSLPRAMKRLEEARLHKEIPETTRTSQMQELHKSLRSLNNFCSQIGDDRPISYCHFSPNSKMLATACWSGLCKLWSVPDCNLLHTLRGHNTNVGAIVFHPKSTVSLDPKDVNLASCAADGSVKLWSLDSDEPVADIEGHTVRVARVMWHPSGRFLGTTCYDRSWRLWDLEAQEEILHQEGHSMGVYDIAFHQDGSLAGTGGLDAFGRVWDLRTGRCIMFLEGHLKEIYGINFSPNGYHIATGSGDNTCKVWDLRQRRCVYTIPAHQNLVTGVKFEPIHGNFLLTGAYDNTAKIWTHPGWSPLKTLAGHEGKVMGLDISSDGQLIATCSYDRTFKLWMAE
modifications: [35S]-L-methionine label
